From patent US10365286B2, “Chromophoric structures for lanthanide chelates” (RADIOMETER TURKU OY, priority 2014, dated 2019) come the findings set out here.

SMILES strings stand for the structures.

This data set concerns cTnI. The data set can be described thus: Model cTnI immunoassay with chelate-labelled detection antibodies. The following applies: for Counts for 0 ng/ml (cTnI standard) / Counts for 5 ng/ml cTnI standard / Eu/IgG (labeling ratio, chelates per protein) / Signal/Eu: antibody labelled with the chelate; for Signal improvement/Eu: versus reference chelate. How it is done: Labeling was performed in 10 mM botate buffer, pH 8.6-9.0 using 30-fold molar excess of chelates. Reactions were normally carried out overnight at +4° C. or at room temperature. Labeled antibodies were purified on Superfex 200 HR 10/30 or Superdex 200 HiLoad 26/60 gel filtration columns using Tris-saline-azide […], 9.0 g/L NaCl, and 0.5 g/L NaN3), pH 7.75 as an elution buffer. The fractions containing the antibody were pooled and the europium concentrations measured against europium calibrator. The purified antibody comjugate and the labeling ratio (i.e. chelates per protein) were quantified by calculating the protein yield or by measureing the absorbance at 280 nm and subtracting the absorption caused by the added chelate.
An earlier published nine dentate label {2,2′,2″,2′″-{[2-(4-isothiocyanato-phenyl)ethylimino]bis(methylene)bis{4-{[4-(α-galactopyranoxy)phenyl]ethynyl}-pyridine-bis(methylenenitrilo)}tetrakis(acetato)}europium(III) (von Loden, P., et al., 2003, Anal. Chem. 75, 3193) was used as a reference label.
Two labels 49 and 54 were tested in a model cTnl assay. The cTnl immunoassays were performed by using biotinylated capture cTnl antibodies together with the labelled cTnl detection antibodies described above and according to the main principles described in published method (von Loden, P., et al., 2003, Anal. Chem. 75, 3193). The combined assay/wash buffer contained 5 mmol HEPES, 2.1 g/L NaCl, 0.1 mmol EDTA, 0.055 g/L Tween 20 and 1 g/L Gernall II, pH 7.75. The capture biotinylated antibodies were pre-incubated in assay wells. The standards followed by the detection label antibody diluted in 20 μl and 10 μl assay buffer, respectively, were applied to the wells. After one hour incubation at 36 C, the wells were washed, dried and measured.

`O=C([O-])CN(CC(=O)[O-])Cc1cc(C#Cc2ccc3c(c2)C(CC(=O)[O-])(CC(=O)[O-])c2ccccc2-3)cc(CN(CCc2ccc(N=C=S)cc2)Cc2cc(C#Cc3ccc4c(c3)C(CC(=O)[O-])(CC(=O)[O-])c3ccccc3-4)cc(CN(CC(=O)[O-])CC(=O)[O-])n2)n1.[Eu+3].[Na+].[Na+].[Na+].[Na+].[Na+]` [Compound 49]: for the setting “First test”, the “Counts for 0 ng/ml (cTnI standard)” value stood at 1095; the “Counts for 5 ng/ml cTnI standard” value is recorded as 110698; the “Eu/IgG (labeling ratio, chelates per protein)” value stood at 8.9; the Signal/Eu is listed as 12254. Besides, for the setting “First test”, the “Signal improvement/Eu” value is on record as 2.2.
Turning to `O=C([O-])CN(CC(=O)[O-])Cc1cc(-c2ccc3c(c2)C(CC(=O)[O-])(CC(=O)[O-])c2ccccc2-3)cc(CN(CCc2ccc(N=C=S)cc2)Cc2cc(-c3ccc4c(c3)C(CC(=O)[O-])(CC(=O)[O-])c3ccccc3-4)cc(CN(CC(=O)[O-])CC(=O)[O-])n2)n1.[Eu+3].[Na+].[Na+].[Na+].[Na+].[Na+]` [Compound 54], under “Second test”, the “Counts for 0 ng/ml (cTnI standard)” value came out at 421; the “Counts for 5 ng/ml cTnI standard” value was determined as 59602; the “Eu/IgG (labeling ratio, chelates per protein)” value is on record as 6.3; the Signal/Eu turned out to be 9394. In addition, where the note is “Second test”, the “Signal improvement/Eu” value turned out to be 1.2.
